Source: patent US6864251B2, “Treatment of LTB4-mediated inflammatory disorders with optically-pure (R)-2,3-benzodiazepines” (Vela Pharmaceuticals, Inc., priority 2002, dated 2005)
At least one compound was matched to its structure with a doubt left.

Test system: LTB4-induced dermal inflammation
Assay: Rabbit model of LTB4-induced dermal inflammation, histopathology of intradermal challenge sites
Type: in vivo, New Zealand White Rabbits
Conditions: summary in words; test article IP 60 mg/kg (dexamethasone 0.5 mg/kg)
Experimental: Test compounds were prepared as follows. The vehicle was first prepared by dissolving […] of hydroxypropylmethylcellulose 2910 (HPMC)(Sigma Chemical, St. Louis, Mo.) in 50 mL of 0.9% saline to yield a concentration of 2% HPMC. The three test articles, (R)-, (S)- and racemic tofisopam, were formulated by adding 1 g of each test article to 10 mL of vehicle.
On Day 0, the rabbits were sedated with ketamine/xylazine (35/5 mg/kg, s.c.) and an area of approximately 8×14 cm on the back was closely and carefully clipped to expose the skin, but not inflame or otherwise damage the epithelium. A grid of ten squares each approximately 2.5×2.5 cm was drawn on each animal's back using an indelible marker. The animals were then dosed intraperitoneally with the appropriate test article corresponding to the group. Thirty minutes after dosing with test or control article, the animals were challenged intradermally with the LTB4 or LTB4-aminopropamide (LTB4-AP, a synthetic LTB4 agonist) in the appropriate site as shown in Table 4. Each injection site was marked with an indelible marker in order to identify the exact location of the intradermal injection site. […] H&E-stained sections were read by a board-certified veterinary pathologist using light microscopy. […]
The tissues were evaluated histopathologically via light microscopy by a board-certified veterinary pathologist. […]

In the case of `C[C@@H]1C[C@H]2[C@@H]3CCC4=CC(=O)C=C[C@]4(C)[C@@]3(F)[C@@H](O)C[C@]2(C)[C@@]1(O)C(=O)CO` [dexamethasone], the “Histopathology finding: reduction of inflammation and edema” value is reported as “no meaningful reduction in the inflammation and edema”.
